Assay results reported in patent publication US20230102223A1, “PHARMACEUTICAL COMPOSITIONS WITH ANTIFLAVIVIRAL ACTIVITY” (HEALTH RESEARCH, INC., priority 2016, published 2023).
At least one compound was matched to its structure with a doubt left.

Tested on: ZIKV NS3 expression
Experiment: Western blot of viral protein expression
Assay type: cell-based
Details: 48 hrs; dose-dependent
Experimental: The ability of compounds to inhibit viral protein expression was also tested by WB, using GTX133309 ZIKV α-NS3 antibody (GeneTex, Inc.).
Lower panel, NS3 expression normalized to the GAPDH loading control.

CC(=O)Oc1ccccc1C(=O)Nc1ncc([N+](=O)[O-])s1 [Nitazoxanide, [2-[(5-nitro-1,3-thiazol-2-yl)carbamoyl]phenyl]acetate]
expression of ZIKV NS3 (western blot): significantly inhibited
